Measurements reported in PubChem BioAssay AID686943 (Drosophila RNAi Screening Center, 2013)

Screen: 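Search across the genome for regulators of signalling from receptor tyrosine kinase to ERK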 (primary screen)
Cells: Drosophila S2R+ haemocyte-like cells expressing YFP-tagged ERK (Rolled)
Reagents: long dsRNA against Drosophila genes
Challenge: insulin stimulation versus unstimulated cells; dose and duration not given
Detection: 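Per-plate z-scores of phospho-ERK immunostaining normalised to YFP-tagged ERK, measured with and without insulin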
Direction: replicate 1, z-score of dpERK with insulin and replicate 2, z-score of dpERK with insulin: higher = more active ERK per ERK-YFP after insulin; replicate 1, z-score of dpERK under basal conditions: higher = more basal active ERK per ERK-YFP; replicate 1, z-score of ERK-YFP with insulin: higher = more YFP-tagged ERK signal
In all, the deposit lists about 23,000 reagents; this is an unselected part of those with a known target gene and a result. 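Extra replicates exist only for a retested subset of genes; insulin dose and duration not given; both raised and lowered dpERK matter.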 Not given: the amount of reagent, the time to read-out.

| target | DRSC id | replicate 1, z-score of dpERK with insulin | replicate 2, z-score of dpERK with insulin | replicate 1, z-score of dpERK under basal conditions | replicate 1, z-score of ERK-YFP with insulin |
| --- | --- | --- | --- | --- | --- |
| dcma (GeneID 5740672) | DRSC00246 | 1.32 | 0.14 | 0.44 | 0.03 |
| dcma (GeneID 5740672) | DRSC00338 | -0.8 | -0.84 | -0.37 | 0.82 |
| mld (GeneID 2768685) | DRSC13681 | -2.35 | -1.94 | -0.93 | 0.91 |
| mld (GeneID 2768685) | DRSC14622 | 0.21 | -0.12 | -0.13 | 1.11 |
| Pym (GeneID 37780) | DRSC22492 | 0.39 | -3.25 | 0.31 | -1.56 |
| CheB42a (GeneID 2768721) | DRSC22881 | 0.85 | -0.84 | 0.15 | 0.73 |
| CG9876 (GeneID 37668) | DRSC04586 | 0.37 | 0.06 | 1.29 | 0.09 |
| CG3942 (GeneID 41489) | DRSC15525 | 0.08 | 0.21 | -0.02 | 0.06 |
| TRAM (GeneID 31042) | DRSC18178 | -0.14 | 0.53 | 0 | 0.22 |
| TRAM (GeneID 31042) | DRSC18651 | -0.17 | -0.98 | -0.56 | 0.19 |
| CG4911 (GeneID 39043) | DRSC10456 | 0.29 | 1.66 | -0.22 | -0.1 |
| CG4408 (GeneID 42762) | DRSC15574 | 0.03 | -0.78 | -0.55 | 0.61 |
| sax (GeneID 35731) | DRSC07675 | -0.32 | 0.34 | 0.72 | 0.25 |
| CG14143 (GeneID 39256) | DRSC10146 | 0.35 | 0.04 | 0.66 | 0.21 |
| frm (GeneID 38624) | DRSC09753 | 0.65 | 0.91 | -0.99 | -0.23 |
| S-Lap7 (GeneID 36524) | DRSC06374 | 1.09 | 0.69 | -0.39 | -0.01 |
| CG17571 (GeneID 35409) | DRSC01768 | -0.35 | 0.22 | -0.44 | 0.52 |
| CG17571 (GeneID 35409) | DRSC03755 | 0.56 | 0.82 | 0.35 | -0.58 |
| TwdlD (GeneID 43210) | DRSC14738 | 0.29 | -0.18 | -0.19 | 0.08 |
| CG11417 (GeneID 31083) | DRSC18581 | -0.41 | -0.77 | -0.98 | 1.24 |
| eff (GeneID 41785) | DRSC16940 | -0.89 | 0.63 | 0.62 | 0.11 |
| 128up (GeneID 36288) | DRSC05027 | -0.14 | -0.16 | 0.67 | -0.57 |
| CG13358 (GeneID 31029) | DRSC18534 | 0.07 | 0.69 | 0.07 | 0.7 |
| Rb97D (GeneID 43231) | DRSC16815 | 0.34 | -0.18 | -0.51 | 0.9 |
| CG12898 (GeneID 36096) | DRSC06213 | 0 | -0.09 | -0.68 | 0.32 |
| CG3163 (GeneID 37836) | DRSC04341 | 0.77 | 0.72 | -1.38 | 0.84 |
| CG18766 (GeneID 59150) | DRSC15936 | 1.3 | 1.31 | 0.81 | 0.73 |
| Pos (GeneID 43762) | DRSC15415 | -0.46 | -0.08 | -0.01 | 0.32 |
| CG2616 (GeneID 40915) | DRSC15440 | -0.36 | 0.27 | -0.34 | 0.45 |
| CG15408 (GeneID 33548) | DRSC00423 | 0.84 | 0.3 | -0.63 | -0.66 |
| ppk8 (GeneID 318213) | DRSC17269 | 1.29 | 0.34 | 2.14 | 0.61 |
| CG7376 (GeneID 38715) | DRSC10829 | 0.32 | 1.25 | 6.49 | 0.08 |
| CG13334 (GeneID 36510) | DRSC06369 | 1.05 | 0.21 | -0.13 | 0.03 |
| CG31029 (GeneID 318562) | DRSC15422 | -1.04 | -0.26 | -0.03 | 1.52 |
| l(2)37Cd (GeneID 35193) | DRSC02069 | -0.25 | -0.2 | -0.57 | 0.56 |
| Rpn12R (GeneID 2768973) | DRSC09842 | -1.55 | -0.26 | -1.07 | 0.6 |
| kek6 (GeneID 43729) | DRSC15299 | 1 | -0.26 | 0.88 | -0.07 |
| TMEM216 (GeneID 41035) | DRSC16378 | 0.05 | 1.34 | -0.26 | 0.26 |
| MED18 (GeneID 31140) | DRSC18549 | 0.07 | -0.86 | -0.11 | 1.22 |

No new results follow: 6 of the entries above.
| target | DRSC id | replicate 1, z-score of dpERK with insulin | replicate 2, z-score of dpERK with insulin | replicate 1, z-score of dpERK under basal conditions | replicate 1, z-score of ERK-YFP with insulin |
| --- | --- | --- | --- | --- | --- |
| CG18766 (GeneID 59150) | DRSC15936 | 1.3 | 1.31 | 0.81 | 0.73 |
| Pos (GeneID 43762) | DRSC15415 | -0.46 | -0.08 | -0.01 | 0.32 |
| CG2616 (GeneID 40915) | DRSC15440 | -0.36 | 0.27 | -0.34 | 0.45 |
| CG15408 (GeneID 33548) | DRSC00423 | 0.84 | 0.3 | -0.63 | -0.66 |
| ppk8 (GeneID 318213) | DRSC17269 | 1.29 | 0.34 | 2.14 | 0.61 |
| CG7376 (GeneID 38715) | DRSC10829 | 0.32 | 1.25 | 6.49 | 0.08 |
